Among all 390,000 compounds or so, about 910 (0.23%) were called active. The inconclusive results got no clear call from the source; some entries with a clear call stand among them for comparison. Calls come from the whole dose curve; as a rule, active = well fitted inhibition curve with a large enough effect; inconclusive = small, poorly fitted or top-dose-only effect; inactive = no such curve, though single readings can be large or run the other way. Potencies of inconclusive entries are doubtful fits and often do not repeat.
biological target: Ubiquitin carboxyl-terminal hydrolase 1 (Homo sapiens) (UniProt O94782); test: Inhibitors of USP1/UAF1: Primary Screen; conditions: recombinant USP1/UAF1, Ub-Rhodamine cleavage fluorescence; series mostly up to 57.1 µM; note: nearly all actives have a fitted effect of over 60% in size
Procedure, shortened: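 Step one: compound is pinned into 1nM USP1/UAF1 in HEPES pH 7.8 buffer with TCEP. Step two: 15 min room-temperature incubation. Step three: Ub-Rho (150nM final) starts cleavage, tracked by fluorescence over six one-minute reads.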
Potency is the fitted concentration of half-maximal effect.

Chains of the proteins cited; added tags and fusions are not shown. Lines headed by an entry give the natural chain unless they say otherwise; changes in a name come on top.
UniProt O94782: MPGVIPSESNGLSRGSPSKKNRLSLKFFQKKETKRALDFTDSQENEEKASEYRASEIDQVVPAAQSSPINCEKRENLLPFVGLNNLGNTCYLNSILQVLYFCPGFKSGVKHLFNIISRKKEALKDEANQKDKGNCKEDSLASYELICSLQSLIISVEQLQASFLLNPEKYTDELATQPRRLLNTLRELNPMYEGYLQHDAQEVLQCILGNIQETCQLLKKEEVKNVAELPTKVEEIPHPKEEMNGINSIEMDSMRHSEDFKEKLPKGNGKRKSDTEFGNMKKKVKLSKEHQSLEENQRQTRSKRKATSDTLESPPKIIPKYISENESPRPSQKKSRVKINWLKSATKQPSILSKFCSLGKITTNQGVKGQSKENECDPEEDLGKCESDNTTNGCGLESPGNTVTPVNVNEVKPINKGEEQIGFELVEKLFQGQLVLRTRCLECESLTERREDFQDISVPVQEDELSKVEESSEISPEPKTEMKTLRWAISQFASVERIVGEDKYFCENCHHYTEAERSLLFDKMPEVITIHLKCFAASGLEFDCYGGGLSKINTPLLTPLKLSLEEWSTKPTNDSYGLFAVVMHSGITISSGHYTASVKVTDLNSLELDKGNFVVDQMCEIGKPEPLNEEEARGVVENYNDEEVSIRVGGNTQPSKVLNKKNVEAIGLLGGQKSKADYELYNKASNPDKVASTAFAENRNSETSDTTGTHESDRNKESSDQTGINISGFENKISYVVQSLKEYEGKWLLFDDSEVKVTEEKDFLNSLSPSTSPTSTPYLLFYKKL

Structure (SMILES) | Potency
CC(C)n1cnc2c(NCc3ccccc3)cc(OCC3CCN(C)CC3)cc21 | active: 17.8 µM
CCc1ccc(NC(=O)CCc2c(C)nn(-c3ccc(N4CCCC4)nn3)c2C)cc1 | inconclusive: 56.2 µM [inhibitor, partial curve, poor fit]
CCCC(CNC(=O)COC(=O)C1=NNC(=O)CC1)c1ccc(Cl)cc1Cl (centres undefined) | inconclusive: 50.1 µM [inhibitor, partial curve, poor fit]
COc1ccc(C(=O)/C=C/c2cn(CC(O)CN3CCCCCC3)c3ccccc23)cc1OC (centres undefined) | inconclusive: 17.8 µM [inhibitor, partial curve]
Cc1nnc(N2C(=O)c3oc4ccccc4c(=O)c3C2c2cccc(OCCC(C)C)c2)s1 (centres undefined) | inconclusive: 0.708 µM [inhibitor, full curve, poor fit]
COc1ccc(C(=O)/C=C/Sc2nc3ccccc3o2)cc1 | inconclusive: 22.4 µM [inhibitor, partial curve]
COc1cccc(N/N=C/c2cccc(Br)c2O)c1 | inactive
CCN1/C(=C\c2ccc3ccccc3[n+]2CC)Sc2cc(C)ccc21 | inconclusive: 70.8 µM [inhibitor, partial curve, poor fit]
CC(=O)N1CCN(CC(O)COc2ccc(OCc3ccccc3)cc2)CC1 (centres undefined) | inconclusive: 0.447 µM [inhibitor, full curve, poor fit]
CC[C@]12c3[nH]c4ccccc4c3CCN1C(=O)C(CC(=O)NC/C=C(\C)CCC=C(C)C)C[C@@H]2C(=O)N1CCN(C(=O)c2ccco2)CC1 (some centres undefined) | inconclusive: 17.8 µM [inhibitor, partial curve]
O=C(CCNS(=O)(=O)c1ccc(Br)cc1)NC1CCC(O)CC1 (centres undefined) | inactive
O=C(COc1ccccc1)N(Cc1cccnc1)c1nc2c(F)cc(F)cc2s1 | inconclusive: 50.1 µM [inhibitor, partial curve, poor fit]
Cc1sc(C2C(C#N)=C(N)N(c3ccc(Cl)cc3)C3=C2C(=O)CCC3)cc1CN1CCOCC1 (centres undefined) | inconclusive: 50.1 µM [inhibitor, single point]
C[C@@H](CN1C2=NC[C@H](Cc3ccccc3)N2C[C@H]1Cc1ccc(O)cc1)NC(=O)CCC1CCCCC1 | inconclusive: 0.224 µM [inhibitor, full curve, poor fit]
Cc1nn(C(C)C(=O)NCCc2ccccc2)c(=O)c2c1sc1ccccc12 (centres undefined) | inconclusive: 15.8 µM [inhibitor, partial curve, poor fit]
CC1CCCCC12NC(=O)N(CC(=O)Nc1cccnc1Cl)C2=O (centres undefined) | inactive
COc1ccc(C2CC(c3ccc(F)cc3)=NN2c2ccccc2)cc1OC (centres undefined) | inconclusive: 44.7 µM [inhibitor, partial curve, poor fit]
Cc1ccn2cc(-c3cccc(S(=O)(=O)N4CCCC4)c3)nc2c1 | inconclusive: 0.251 µM [inhibitor, full curve, poor fit]
NC(=O)c1c(NC(=O)Cc2ccccc2)sc2c1CCN(Cc1ccccc1)C2 | inactive
O=C(CN1C(=O)c2ccccc2S1(=O)=O)NCCc1ccccc1 | inconclusive: 5.01 µM [inhibitor, partial curve]

Already shown: 3 of the compounds above.
Structure (SMILES) | Potency
CC(C)n1cnc2c(NCc3ccccc3)cc(OCC3CCN(C)CC3)cc21 | active: 17.8 µM
CCc1ccc(NC(=O)CCc2c(C)nn(-c3ccc(N4CCCC4)nn3)c2C)cc1 | inconclusive: 56.2 µM [inhibitor, partial curve, poor fit]
CCCC(CNC(=O)COC(=O)C1=NNC(=O)CC1)c1ccc(Cl)cc1Cl (centres undefined) | inconclusive: 50.1 µM [inhibitor, partial curve, poor fit]

Remaining list, next part

Structure (SMILES) | Potency
COc1ccc(/C=C2\SC(=O)N(CCNC(=O)C3CCN(S(=O)(=O)c4cccs4)CC3)C2=O)cc1 | inactive
CC1=C(c2ccc(Cl)cc2)[N+](=O)C(C)(C)N1[O-] | inactive
O=C(c1cccc(F)c1)N1CCc2ccccc2C1 | inconclusive: 39.8 µM [inhibitor, partial curve]
C=CCn1c(SCC(=O)c2ccc(OC)cc2)nnc1-c1ccc2c(c1)OCO2 | inconclusive: 0.501 µM [inhibitor, full curve, poor fit]
Cn1cccc1Cc1nnc(SCC(=O)Nc2ccc3c(c2)OCCO3)n1-c1ccc(F)cc1 | inconclusive: 0.126 µM [inhibitor, full curve, poor fit]
C=CCn1c2ccccc2c(=O)c2cc(C#Cc3ccccn3)ccc21 | inconclusive: 0.355 µM [inhibitor, full curve]
COc1ccc(CCC(=O)NCCc2csc(-c3ccc(F)cc3)n2)cc1 | inconclusive: 50.1 µM [inhibitor, partial curve, poor fit]
CCCC(CCC(=O)Nc1nccs1)C(=O)O (centres undefined) | inconclusive: 7.08 µM [inhibitor, single point]
CCN(CC)c1ccc(C=NNc2ccc([N+](=O)[O-])cn2)cc1 | inconclusive: 1.41 µM [inhibitor, partial curve, poor fit]
O=C(CSc1nnnn1-c1ccc(C(=O)O)cc1)NC1CCCCC1 | inconclusive: 39.8 µM [inhibitor, partial curve, poor fit]
COc1ccc(C(=O)/C=C/c2ccc(C)cc2)c(OC(=O)c2ccc([N+](=O)[O-])cc2)c1 | inactive
COc1cc(C(=O)NC(C)c2ccc(-n3ccnc3)cc2)cc(OC)c1C (centres undefined) | inconclusive: 0.708 µM [inhibitor, full curve]
Cc1ccc(-c2nn3c(-c4ccccc4C)nnc3c3ccccc23)cc1 | inconclusive: 0.794 µM [inhibitor, full curve]
COc1ccc(OCc2nc(C#N)c(N3CCN(c4ccc(OC)cc4)CC3)o2)cc1 | inconclusive: 63.1 µM [inhibitor, partial curve, poor fit]
CCCOc1ccc(C2C(=O)N(C3CCCCCC3)CC(=O)N2Cc2ccccc2OC)cc1OC (centres undefined) | inactive
CCOc1ccc(-n2cc(-c3ccccc3)c3c(NCCc4ccccc4)ncnc32)cc1 | inconclusive: 3.16 µM [inhibitor, full curve, poor fit]
O=C(CCn1c(=O)c2sccc2n(Cc2ccccc2F)c1=O)NCc1ccc2c(c1)OCO2 | inconclusive: 0.251 µM [inhibitor, full curve, poor fit]
CCN(CC)S(=O)(=O)c1cccc(C(=O)Nc2cccc(C)c2)c1 | inconclusive: 39.8 µM [inhibitor, partial curve, poor fit]
Cc1ccccc1NC(=O)Cn1cc(C(=O)c2ccco2)c2ccccc21 | inconclusive: 20 µM [inhibitor, single point]
